From US20040265863 come the findings set out here.

The chains behind the UniProt entries cited, without tags or fusion partners. Where a name states a change or a piece, a line headed by the entry shows the natural chain unless it says otherwise.
UniProt P00573: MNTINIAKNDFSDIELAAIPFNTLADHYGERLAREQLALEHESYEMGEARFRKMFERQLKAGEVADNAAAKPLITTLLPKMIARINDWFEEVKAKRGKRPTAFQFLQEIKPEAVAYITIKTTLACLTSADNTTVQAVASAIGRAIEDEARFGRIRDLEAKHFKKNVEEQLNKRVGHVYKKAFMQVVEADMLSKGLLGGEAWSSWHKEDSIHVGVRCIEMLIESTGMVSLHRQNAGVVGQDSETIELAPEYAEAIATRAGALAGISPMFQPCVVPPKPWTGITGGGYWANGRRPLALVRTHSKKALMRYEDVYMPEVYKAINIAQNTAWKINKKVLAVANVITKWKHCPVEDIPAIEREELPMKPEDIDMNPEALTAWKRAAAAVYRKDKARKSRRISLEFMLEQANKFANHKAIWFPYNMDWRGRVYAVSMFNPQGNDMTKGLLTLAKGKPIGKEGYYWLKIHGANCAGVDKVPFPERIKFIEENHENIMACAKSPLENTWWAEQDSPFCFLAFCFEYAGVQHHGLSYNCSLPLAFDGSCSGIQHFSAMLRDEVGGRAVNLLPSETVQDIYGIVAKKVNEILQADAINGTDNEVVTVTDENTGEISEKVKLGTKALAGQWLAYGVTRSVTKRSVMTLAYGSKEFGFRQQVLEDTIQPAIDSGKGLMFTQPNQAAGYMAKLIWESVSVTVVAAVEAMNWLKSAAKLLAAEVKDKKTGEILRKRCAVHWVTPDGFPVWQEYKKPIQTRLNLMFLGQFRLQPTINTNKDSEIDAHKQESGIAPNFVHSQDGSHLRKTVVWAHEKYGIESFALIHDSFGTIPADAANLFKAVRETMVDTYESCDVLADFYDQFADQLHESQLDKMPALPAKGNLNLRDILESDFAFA
UniProt P07659: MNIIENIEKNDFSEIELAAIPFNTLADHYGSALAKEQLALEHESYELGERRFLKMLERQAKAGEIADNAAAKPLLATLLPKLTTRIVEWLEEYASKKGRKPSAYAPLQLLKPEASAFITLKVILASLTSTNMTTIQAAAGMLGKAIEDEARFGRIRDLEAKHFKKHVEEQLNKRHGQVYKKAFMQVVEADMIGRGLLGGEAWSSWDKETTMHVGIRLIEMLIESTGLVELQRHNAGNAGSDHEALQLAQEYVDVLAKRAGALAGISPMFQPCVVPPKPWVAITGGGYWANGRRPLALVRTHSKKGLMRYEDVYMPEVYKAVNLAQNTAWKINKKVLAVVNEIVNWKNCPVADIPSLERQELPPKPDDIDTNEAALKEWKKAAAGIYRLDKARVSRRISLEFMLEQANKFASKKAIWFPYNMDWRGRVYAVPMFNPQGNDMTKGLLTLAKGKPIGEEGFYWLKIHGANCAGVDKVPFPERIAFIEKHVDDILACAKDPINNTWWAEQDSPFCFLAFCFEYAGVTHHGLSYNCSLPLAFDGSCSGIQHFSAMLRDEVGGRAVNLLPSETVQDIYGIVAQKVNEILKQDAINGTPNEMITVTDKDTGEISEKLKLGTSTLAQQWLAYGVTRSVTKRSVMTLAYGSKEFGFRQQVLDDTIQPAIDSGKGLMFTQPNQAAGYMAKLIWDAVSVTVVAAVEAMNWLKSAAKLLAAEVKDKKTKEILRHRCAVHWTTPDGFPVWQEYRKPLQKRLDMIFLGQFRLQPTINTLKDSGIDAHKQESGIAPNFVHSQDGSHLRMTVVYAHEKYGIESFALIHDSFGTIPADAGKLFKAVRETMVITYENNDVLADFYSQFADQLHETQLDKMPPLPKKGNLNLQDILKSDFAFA

Experiment in all cases: activity assay
In data set [1] the target is T7 RNA polymerase (Bacteriophage T7) (UniProt P00573). The following applies: in vitro transcription from amplified T7-GFP-T3 product, 37 C 60 min; purified recombinant protein; protein details: Promega RiboProbe kit.
Data set [2] has as its target T3 RNA polymerase (Bacteriophage T3) (UniProt P07659). The following applies: in vitro transcription from amplified T7-GFP-T3 product, 37 C 60 min; purified recombinant protein; protein details: Promega RiboProbe kit.
Data set [3] concerns BP Clonase (lambda integrase recombination protein mix). To be noted: attB1-CAT-attB2 x pDONR222; 188 colonies (chemical) vs 0 vector only; purified recombinant protein; protein details: Invitrogen BP Clonase enzyme mix.

Regarding “GAAGGAGTAATACGACTCACTATAGGGAGCCACCATGGGCCCTTCGGAAC (double strand) [T7 linker (T7top/T7bottom)]”, the functional effect entry in data set [1] is on record as “active”.
With “GGCCTAAAGGGTCCCTTTAGTGAGGGTTAATTGCGCGC (double strand) [T3 linker (T3top/T3bottom)]”, in data set [2], the functional effect entry is “active”.
As for “GGGGACAAGTTTGTACAAAAAAGCAGGCTTCCCTTCGGAAC (double strand) [attB1 adaptor]”, in data set [3], the “activity on this sequence” value is listed as “active”.
